Assay results: patent publication US10226530B2, “Methods for treating and/or limiting development of diabetes” (Biocrine AB, priority 2011, dated 2019)
At least one structure is not confirmed: it was looked up by name or label, or the drawing left a doubt.

Test system: β cell CaV channels
Test: perforated whole-cell patch-clamp of Ca2+ currents in RINm5F cells
Assay type: cell-based, rat
Protocol: Islets of Langerhans were isolated from adult male and female mice and dispersed into single ([…]. RINm5F cells at about 70% confluency were trypsinized. The resultant suspension of cells was seeded into Petri dishes or 12-well plates. The cells were cultivated in RPMI 1640 medium supplemented with 10% fetal bovine serum, 2 mM L-glutamine, and 100 U/100 […] penicillin/streptomycin (Invitrogen, Carlsbad, Calif.) and maintained at 37° C. in a humidified 5% CO2 incubator. They were grown overnight and then subjected to siRNA transfection. For patch-clamp analysis, cells underwent overnight treatment with ApoCIII, the PKA inhibitor H-89 (Calbiochem, La Jolla, Calif.), the PKC inhibitor calphostin C (Calbiochem), the Src kinase inhibitor PP2 (Calbiochem) and the CaV1 channel blocker nimodipine (Calbiochem) in RPMI medium at final concentrations of 20 μg/ml, 0.5 μM, 0.1 μM, 0.1 μM and 5 μM, respectively. […]
Mouse islet cells and RINm5F cells following different treatments were subjected to single channel and whole-cell patch-clamp measurements. […] Single channel and whole-cell currents were recorded with an Axopatch 200B amplifier (Molecular Devices, Foster City, Calif.) and an EPC-9 patch clamp amplifier (HEKA Elektronik, Lambrecht/Pfalz, Germany), respectively, at room temperature (about 22° C.). […]

## COCCOC(=O)C1=C(C)NC(C)=C(C(=O)OC(C)C)C1c1cccc([N+](=O)[O-])c1 (centres unmarked) [nimodipine]
CaV1 channel blocker nimodipine 5 μM coincubation
  effect on ApoCIII enhancement of whole-cell Ca2+ currents: completely abrogated
Nimodipine 5 μM, ApoCIII 20 μg/ml, overnight
  whole-cell Ca2+ current density, ApoCIII in the presence of nimodipine versus control (nimodipine alone): no significant difference
